At least one structure is not confirmed: it was looked up by name or label, or the drawing left a doubt.
Tested on: 24-hr old PAO1 biofilms
Experiment: Biofilm susceptibility testing (MBEC assay, BacTiter-Glo)
Format: cell-based, Pseudomonas aeruginosa
Details: antibiotic alone, 100 μM
Description: To measure antimicrobial susceptibility of biofilms, the MBEC™ assay was used (Innovotech) as previously described. This assay consists of a lid with 96 polystyrene pegs used to grow biofilms. Briefly, an overnight culture was washed and diluted to an OD600 of 0.001 and seeded into a MBEC™ plate. To grow biofilms, the plate was then incubated for 24-hrs at 35° C. in a humidified chamber with agitation at 150 RPM. After 24-hrs, the lid was then transferred to a 96-well plate filled with DPBS and washed for 5-mins to remove non-adherent cells. The lid was transferred to the 96-well treatment plate and incubated for the indicated time points at 35° C. without agitation. After the incubation, the MBEC™ lid was washed and transferred to a black 96-well ViewPlate (PerkinElmer) filled with BacTiter-Glo™ to enumerate cell viability and then luminescence was measured using a EnVison Multilabel Plate Reader (PerkenElmer, Waltham, Mass.). Percent killing was calculated as:
[formula] Dose response curves were performed in the same manner. Crystal Violet Staining
Time killing curves were performed by growing 24-hr old biofilms on MBEC™ plates as previously described. Briefly, 100 μM of oxyclozanide and 500 μM of tobramycin were used to test for synergy at high concentrations of tobramycin, mirroring what is done clinically. […]

SMILES: CN(C)[C@@H]1C(O)=C(C(N)=O)C(=O)[C@@]2(O)C(O)=C3C(=O)c4c(O)cccc4[C@@](C)(O)[C@H]3C[C@@H]12 [tetracycline]
- delay in killing activity against 24-hr old biofilms: did not show a delay

Reference: patent US11318149B2, “Compositions and methods for inhibiting biofilm-forming bacteria” (Board of Trustees of Michigan State University, priority 2018, dated 2022)
